According to paper PMC3651266:
These are yes or no findings as the source states them, for the method shown. Binding seen in cells or lysates may run through a third protein. Some binding calls cover weakened binding; strength is not graded here. For part of these data: Sequences can lack the tags named with a protein.

Protein sequences, listed by entry. Tags and fused reporters are not part of them. Lines headed by an entry give the natural chain unless they say otherwise; changes in a name come on top. Chains listed by the source or under a name are the forms on record and can include a tag or linker.
UniProt Q13153: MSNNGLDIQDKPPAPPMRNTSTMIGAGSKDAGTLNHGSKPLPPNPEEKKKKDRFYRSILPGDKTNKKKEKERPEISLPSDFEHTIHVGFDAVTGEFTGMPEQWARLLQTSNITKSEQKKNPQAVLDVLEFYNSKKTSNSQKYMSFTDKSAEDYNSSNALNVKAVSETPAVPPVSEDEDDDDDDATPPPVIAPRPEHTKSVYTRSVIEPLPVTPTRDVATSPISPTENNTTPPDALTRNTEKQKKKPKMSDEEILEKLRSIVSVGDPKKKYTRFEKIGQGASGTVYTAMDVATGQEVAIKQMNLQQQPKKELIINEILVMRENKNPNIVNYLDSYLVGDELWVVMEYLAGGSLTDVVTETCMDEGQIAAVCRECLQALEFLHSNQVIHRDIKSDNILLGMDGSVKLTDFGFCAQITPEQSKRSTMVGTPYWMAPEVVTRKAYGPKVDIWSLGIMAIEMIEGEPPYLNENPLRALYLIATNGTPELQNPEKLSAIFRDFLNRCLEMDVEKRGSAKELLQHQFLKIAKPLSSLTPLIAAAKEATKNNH
Flag-tagged p21-activated kinase 3 (Pak3), wild type (O75914-2, form named): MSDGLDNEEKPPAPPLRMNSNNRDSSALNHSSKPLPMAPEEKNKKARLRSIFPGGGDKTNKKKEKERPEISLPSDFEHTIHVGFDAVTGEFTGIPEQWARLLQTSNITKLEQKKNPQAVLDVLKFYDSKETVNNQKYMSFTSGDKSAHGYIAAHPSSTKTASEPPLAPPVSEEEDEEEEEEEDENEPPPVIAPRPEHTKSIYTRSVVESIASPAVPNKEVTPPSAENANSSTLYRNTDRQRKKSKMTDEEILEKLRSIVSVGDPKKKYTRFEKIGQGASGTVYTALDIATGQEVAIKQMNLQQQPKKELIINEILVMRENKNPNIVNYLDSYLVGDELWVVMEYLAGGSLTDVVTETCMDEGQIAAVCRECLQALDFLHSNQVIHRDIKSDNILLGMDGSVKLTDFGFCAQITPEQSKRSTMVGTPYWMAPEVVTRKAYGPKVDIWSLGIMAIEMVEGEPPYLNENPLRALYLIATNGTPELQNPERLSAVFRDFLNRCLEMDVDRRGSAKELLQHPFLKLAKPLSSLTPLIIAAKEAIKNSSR

Assays:
[1] = target: T1, V5-tagged CREB-regulating transcriptional coactivator 1 (CRTC1) (UniProt Q6UUV9); assay: co-IP; HEK293T cells co-transfected; lysis buffer 20 mM Tris-HCl pH 7.5, 100 mM NaCl, 0.1% NP-40, 0.5 mM EDTA; lysate with anti-Flag or anti-V5 at 4°C overnight, protein A-agarose, three washes; Western blotting with anti-Flag, anti-V5, anti-Tax
T1 sequence: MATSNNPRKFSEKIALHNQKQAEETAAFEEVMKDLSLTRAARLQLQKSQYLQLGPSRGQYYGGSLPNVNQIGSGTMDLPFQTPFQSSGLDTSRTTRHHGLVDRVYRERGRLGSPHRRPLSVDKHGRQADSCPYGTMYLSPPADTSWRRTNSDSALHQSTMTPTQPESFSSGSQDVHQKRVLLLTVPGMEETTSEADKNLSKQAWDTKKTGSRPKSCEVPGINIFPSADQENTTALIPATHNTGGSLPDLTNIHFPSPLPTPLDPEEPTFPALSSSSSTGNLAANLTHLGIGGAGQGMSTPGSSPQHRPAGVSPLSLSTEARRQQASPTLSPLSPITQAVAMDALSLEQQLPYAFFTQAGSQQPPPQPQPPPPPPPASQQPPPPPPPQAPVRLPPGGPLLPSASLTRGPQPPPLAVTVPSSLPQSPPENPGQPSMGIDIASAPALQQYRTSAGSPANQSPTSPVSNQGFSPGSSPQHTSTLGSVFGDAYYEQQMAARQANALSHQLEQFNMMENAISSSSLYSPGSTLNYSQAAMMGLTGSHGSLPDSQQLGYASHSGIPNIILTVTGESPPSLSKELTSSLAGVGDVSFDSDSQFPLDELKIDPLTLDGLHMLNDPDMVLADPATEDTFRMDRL

[2] = target: Flag-tagged p21-activated kinase 1 (Pak1) (UniProt Q13153); assay: as above
[3] = target: Flag-tagged p21-activated kinase 3 (Pak3), wild type (UniProt O75914); assay: as above
[4] = target: T2, V5-tagged CREB-regulating transcriptional coactivator 1 (CRTC1) (expressed in HeLa cells) (UniProt Q6UUV9); assay: co-IP; HeLa cells transfected with expression plasmids for CRTC1-V5 and Tax; precipitation with monoclonal anti-V5, blot with anti-Tax; analysed as in Figure 5; control cells not depleted of Pak1
T2 sequence: T1 sequence

| Substance | binding [1] | binding [2] | binding [3] | binding [4] |
| --- | --- | --- | --- | --- |
| Flag-tagged p21-activated kinase 1 (Pak1) (from UniProt Q13153 1-545) (enzyme) | binds |  |  |  |
| HTLV-1 transactivator protein Tax (from UniProt P03409 1-353) | binds | binds | binds |  |
| HTLV-1 transactivator protein Tax (expressed in HeLa cells) (from UniProt P03409 1-353) |  |  |  | binds |
| Flag-tagged p21-activated kinase 3 (Pak3), wild type (from UniProt O75914-2 1-544) (enzyme) | binds |  |  |  |
